According to PubChem BioAssay AID2685 (National Center for Advancing Translational Sciences (NCATS), 2010):
Some of the results follow. Further columns of the screen follow, without active or inactive calls. The list favours compounds with an active or inconclusive main result. Words in brackets tell the shape of the fitted curve; partial curves, single points and poor fits give uncertain potencies.

Test: qHTS Assay for Lipid Storage Modulators in Drosophila S3 Cells;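 on cell number change: cells counted by Cell Tracker Red CMTPX staining in the red channel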
Conditions: BODIPY lipid droplet fluorescence, 18-24 h; for cell number change: measured here: cell count max response, cells fed with added oleic acid
Method in brief: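 Laser-scanning cytometry quantifies lipid droplet accumulation (500–530 nm total intensity; droplet/cell object ratio) in oleic acid-fed (400 uM added) Drosophila S3 cells treated with a concentration series. 20 uM Triacsin C defined 100% inhibition.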

[1] = measured here: lipid fluorescence (Fed channel) AC50, cells fed with added oleic acid
[2] = measured here: cell number channel AC50, cells fed with added oleic acid

CCN1CCN(Cc2cc(Br)cc(OC)c2O)CC1
cell number change: -22% | AC50 [1]: 0.58 µM [falling, single point]

O=C(C[N+]12CCN(CC1)CC2)NCCc1ccc(Cl)cc1Cl
cell number change: 4.52%

CC(CCc1ccccc1)NCCC#N (stereo not given)
cell number change: -35.9% | AC50 [2]: 16.4 µM [falling, single point]

C[C@]12CCC3C(CCC4=C/C(=N/OCC(=O)NC(CCC(N)=O)C(=O)O)CC[C@@]43C)C1CCC2O (stereo not given in full)
cell number change: -11.3% | AC50 [2]: 0.58 µM [rising, single point]

COc1cccc(N2C(=O)NC(=O)C3(Cc4cc(C)ccc4N(C)C3)C2=O)c1 (stereo not given)
cell number change: -2.71% | AC50 [1]: 0.00461 µM [falling, full curve, poor fit]

CC1CCCC(NC(=O)COC(=O)c2cn(C)c3ccccc23)C1C (stereo not given)
cell number change: 18.5% | AC50 [1]: 1.46 µM [rising, partial curve, poor fit]

C[C@]12CCC(=O)C=C1CC[C@@H]1C2CC[C@]2(C)C(=O)CCC12 (stereo not given in full)
cell number change: -11.7%

COC(=O)C1=C(c2ccc(-c3ccccc3)c(F)c2)C[C@@H]2CC[C@H]1N2C(=O)NC1Cc2ccccc2C1
AC50 [1]: 8.2 µM [falling, partial curve]

Cn1ccnc1P(=S)(c1nccn1C)c1nccn1C
cell number change: -10.4% | AC50 [1]: 0.13 µM [falling, full curve, poor fit]

CCCCCCC(=O)c1c(O)n(-c2ccccc2OC)c(=O)[nH]c1=O
AC50 [1]: 0.411 µM [falling, full curve, poor fit]

CC1(C)CN=C(NCc2ccccc2Cl)S1
cell number change: -15.6% | AC50 [2]: 0.651 µM [falling, full curve, poor fit] | AC50 [1]: 0.731 µM [falling, full curve]

Cc1cc(OC(C)C(=O)NCC2CCC(C(=O)O)CC2)c2c3c(c(=O)oc2c1)CCC3 (stereo not given)
cell number change: -15.6%

O=[N+]([O-])NC1=NCCN1Cc1ccc(Cl)nc1
cell number change: -21.4% | AC50 [1]: 0.0082 µM [falling, full curve, poor fit]

C[C@]12CC[C@@H](O)C[C@H]1CC[C@@H]1[C@@H]2CC[C@]2(C)C(=O)CC[C@@H]12
cell number change: -27.9% | AC50 [1]: 14.6 µM [falling, single point]

CC1CCCCN1Cc1cccnc1 (stereo not given)
cell number change: 4.87% | AC50 [1]: 29.1 µM [falling, single point]

CCOC(=O)c1sc(N=Nc2c(O)[nH]c(=O)[nH]c2=O)c(C(=O)OCC)c1C
cell number change: 1.96% | AC50 [1]: 29.1 µM [rising, single point]

O=C1NC(=O)C(=Cc2ccc(OCC(=O)N3CCOCC3)cc2)C(=O)N1
cell number change: -15.8% | AC50 [2]: 3.66 µM [rising, partial curve] | AC50 [1]: 0.731 µM [falling, full curve]

CC[N+](CC)(CC#CCO)CC#Cc1ccccc1
cell number change: -34.5% | AC50 [2]: 6.51 µM [falling, partial curve] | AC50 [1]: 20.6 µM [falling, single point]

Cc1ccc(O)c(CN2CCN(c3ccccc3)CC2)c1
cell number change: -13.2% | AC50 [1]: 29.1 µM [rising, single point]

O=c1[nH]c(=S)n(-c2ccc(Br)cc2)c(O)c1C=Nc1ccc(N2CCOCC2)cc1
cell number change: 9.01% | AC50 [1]: 4.11 µM [falling, partial curve, poor fit]

O=c1[nH]c(O)c(N=Nc2cccc(S(=O)(=O)N3CCOCC3)c2)c(=O)[nH]1
cell number change: -14.2% | AC50 [2]: 0.103 µM [falling, partial curve, poor fit]

C#CCN(C)[C@H](C)Cc1ccccc1
cell number change: 6.14% | AC50 [1]: 0.731 µM [rising, full curve, poor fit]

Cc1cc(=O)oc2cc3c(cc12)CCCN3
cell number change: 8.33%

CCOC(=O)Cn1c(=O)oc2cc(S(=O)(=O)NC3CCCc4ccccc43)ccc21 (stereo not given)
AC50 [2]: 0.13 µM [falling, full curve, poor fit]

COc1ccccc1C1=NCc2nnc(C)n2-c2ccc(Cl)cc21
cell number change: 8.31% | AC50 [1]: 0.13 µM [rising, full curve, poor fit]

CN1C(=O)/C(=C/C=C/c2ccco2)C(=O)NC1=S
cell number change: -36.6% | AC50 [1]: 0.184 µM [falling, full curve]

O=C(CN1CCCCC1)c1ccccc1F
cell number change: -1.09%

OC(CN1CC=C(c2ccccc2)CC1)c1ccccc1 (stereo not given)
cell number change: -10.8% | AC50 [1]: 0.731 µM [falling, partial curve]

O=C1CN=C(c2ccccc2)c2cc(Br)ccc2N1Cc1cc(=O)n2ccccc2n1
cell number change: 9.86% | AC50 [1]: 8.2 µM [rising, partial curve, poor fit]

O=C1NC(=S)NC(=O)C1=Cc1ccc(Br)s1
cell number change: -49.2% | AC50 [2]: 18.4 µM [falling, single point] | AC50 [1]: 29.1 µM [falling, single point]

Cc1cccc(-n2c(O)c(C=NCCCN3CCOCC3)c(=O)[nH]c2=O)c1C
AC50 [2]: 6.51 µM [rising, single point]

CCCCNS(=O)(=O)c1ccc(OCC(=O)N2CCN(Cc3ccc4c(c3)OCO4)CC2)cc1
cell number change: -15.6% | AC50 [1]: 2.06 µM [falling, partial curve]

COc1ccccc1-n1c(CNCC2CCCO2)nc2ccccc2c1=O (stereo not given)
AC50 [2]: 1.64 µM [falling, partial curve]

O=[N+]([O-])c1cccc(NP(=O)(Oc2ccccc2)Oc2ccccc2)c1
cell number change: 17.7%

NC(N)=N/N=C/c1ccc(N2CCOCC2)cc1
cell number change: -2.85% | AC50 [2]: 6.51 µM [rising, single point]

COCCN1C(=O)NC(=O)/C(=C\c2ccc(Br)cc2)C1=O
cell number change: -27.4%

Cc1cnc[nH]1
cell number change: -17.4% | AC50 [1]: 9.2 µM [rising, single point]

CNC(=O)N(C)c1ccc(C(O)(C(=O)OC)C(F)(F)F)cc1 (stereo not given)
cell number change: 31.5% | AC50 [2]: 32.6 µM [rising, single point]

O=[N+]([O-])c1ccc(N2CCCC2)c(F)c1Br
cell number change: -59.5% | AC50 [2]: 18.4 µM [falling, single point] | AC50 [1]: 29.1 µM [falling, single point]

C/C=C(\C)C(=O)N[C@@H](c1ccccc1)[C@@H](O)C(=O)O[C@H]1C[C@@]2(O)[C@@H](OC(=O)c3ccccc3)C3[C@](C)(C(=O)[C@H](OC(C)=O)C(=C1C)C2(C)C)[C@@H](O)C[C@H]1OC[C@@]31OC(C)=O (stereo not given in full)
cell number change: -3.88% | AC50 [1]: 29.1 µM [falling, single point]

C=CCN1C(=O)NC(=O)/C(=C/c2cc3c4c(c2)CCCN4CCC3)C1=O
cell number change: -18.9% | AC50 [2]: 0.103 µM [falling, full curve, poor fit]

CNC(=O)Oc1ccc2c(c1)C(=O)c1ccccc1CO2
cell number change: -50.6% | AC50 [2]: 29.1 µM [falling, single point]

O=C(c1cccc([N+](=O)[O-])c1)C12CN3CN(CN(C3)C1)C2
cell number change: -41.1% | AC50 [2]: 3.66 µM [falling, partial curve, poor fit] | AC50 [1]: 0.82 µM [falling, full curve]

CCCCn1c(O)c(/C=C/C=Nc2ccccc2)c(=O)[nH]c1=O
cell number change: -30.2% | AC50 [2]: 29.1 µM [falling, single point]

CC1=CC(C)C(COC(N)=O)(COC(N)=O)C(C)C1 (stereo not given)
cell number change: -50.1% | AC50 [2]: 0.164 µM [falling, full curve, poor fit] | AC50 [1]: 0.0731 µM [falling, full curve, poor fit]

Nc1c(C(=O)NCc2ccco2)c2nc3ccccc3nc2n1Cc1ccccc1
cell number change: -57.5% | AC50 [2]: 25.9 µM [falling, single point] | AC50 [1]: 29.1 µM [falling, single point]

CN1CCC(N(C)c2ccc(C(N)=O)cc2[N+](=O)[O-])CC1
cell number change: -3.23% | AC50 [1]: 0.146 µM [falling, full curve, poor fit]

Cc1ccc2c(c1)C1CN(C)CCC1N2S(=O)(=O)c1ccccc1 (stereo not given)
cell number change: 63.6% | AC50 [2]: 5.8 µM [rising, full curve]

CCOC(=O)c1c(/N=C/c2c(O)n(-c3cccc(C)c3)c(=O)[nH]c2=O)sc2c1CCCC2
cell number change: 2.25%

Oc1ccc(C2NCc3ccccc3-n3cccc32)cc1Cl (stereo not given)
cell number change: -2.32%

C[C@]12CCC(=O)C=C1CC[C@@H]1C2[C@H](O)C[C@]2(C)C(=O)CCC12 (stereo not given in full)
cell number change: 15.3% | AC50 [2]: 6.51 µM [rising, partial curve, poor fit] | AC50 [1]: 6.51 µM [falling, single point]

O=C1CC(N2CCC(n3c(=O)[nH]c4ccccc43)CC2)C(=O)N1Cc1ccccc1 (stereo not given)
AC50 [1]: 0.103 µM [rising, full curve, poor fit]

c1ccc(C2N3CCCN23)cc1 (stereo not given)
cell number change: -55.5% | AC50 [2]: 6.51 µM [falling, partial curve] | AC50 [1]: 0.58 µM [falling, single point]

O=C(O)C1C2CCC(O2)C1C(=O)Nc1cccc(Br)c1 (stereo not given)
cell number change: 28.2% | AC50 [1]: 20.6 µM [rising, single point]

CC(C)C/C(=N/O)c1c[nH]c2ccccc12
AC50 [2]: 6.51 µM [falling, single point] | AC50 [1]: 6.51 µM [falling, single point]

COc1cccc(C(=O)N2CCC3(CC2)OCCO3)c1
cell number change: -11.8% | AC50 [1]: 0.0651 µM [falling, full curve, poor fit]

CCc1c(C)nc(N)nc1N1N=C1SCC#N
cell number change: 12.5% | AC50 [1]: 23.1 µM [rising, partial curve, poor fit]

O=C(Cn1nc(Cc2cccnc2)c2ccccc2c1=O)N1CCC2(CC1)OCCO2
AC50 [2]: 3.26 µM [rising, single point] | AC50 [1]: 4.11 µM [rising, single point]

COc1ccccc1N1CCN(Cc2ccccc2Cl)CC1
cell number change: -70.4% | AC50 [2]: 5.8 µM [falling, full curve]

Cc1cccc(-n2c(O)c(C=NCCN3CCCCC3)c(=O)[nH]c2=O)c1
cell number change: -20.6% | AC50 [2]: 0.651 µM [rising, single point]
